Test results: PMC3031606
These are yes or no findings as the source states them, for the method shown. For some of these results: In cells and extracts the contact can be indirect. Some binding calls cover weakened binding; strength is not graded here. Tags and fused reporters may be left off the sequences shown.

Experiments:
[1] = molecular target: T1, LHP1 fused to a split YFP fragment for BiFC (Arabidopsis thaliana) (UniProt Q946J8); assay: split reporter; BiFC in N. benthamiana leaves with the swapped fusions LIF2:YFP^C and LHP1:YFP^N; data not shown
T1 sequence: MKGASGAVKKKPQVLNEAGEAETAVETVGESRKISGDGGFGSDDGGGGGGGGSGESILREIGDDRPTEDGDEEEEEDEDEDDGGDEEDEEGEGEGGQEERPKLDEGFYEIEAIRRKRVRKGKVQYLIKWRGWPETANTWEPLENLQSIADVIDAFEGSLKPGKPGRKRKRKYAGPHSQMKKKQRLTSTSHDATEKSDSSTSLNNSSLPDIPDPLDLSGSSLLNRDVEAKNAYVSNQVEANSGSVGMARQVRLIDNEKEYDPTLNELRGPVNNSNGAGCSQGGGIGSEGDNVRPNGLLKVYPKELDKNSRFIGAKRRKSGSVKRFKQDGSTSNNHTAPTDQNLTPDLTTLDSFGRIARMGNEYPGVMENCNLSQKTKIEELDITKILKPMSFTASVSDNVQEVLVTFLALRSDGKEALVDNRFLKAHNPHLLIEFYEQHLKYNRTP

[2] = molecular target: T1, LHP1 fused to a split YFP fragment for BiFC (Arabidopsis thaliana); assay: split reporter; BiFC with split YFP in transiently transformed N. benthamiana leaves; Agrobacterium strains mixed 1:1, observed 48 to 72 h after infiltration by confocal microscopy; LIF2:YFP^N with LHP1:YFP^C; LHP1 with LHP1
[3] = molecular target: T2, LIKE HETEROCHROMATIN PROTEIN1 (LHP1), full length, fused to the GAL4 DNA binding domain (Arabidopsis thaliana) (UniProt Q946J8); assay: two-hybrid; GAL4 system in yeast PJ69-4A; LHP1 or truncated LHP1 fused to the GAL4 DNA binding domain as bait, λACT Arabidopsis cDNA library clone / pAD-LIF2 as prey; selection on medium lacking histidine, leucine and tryptophan with 2 mM 3-amino-1,2,4-triazole, β-galactosidase assay; confirmed by independent cotransformations
T2 sequence: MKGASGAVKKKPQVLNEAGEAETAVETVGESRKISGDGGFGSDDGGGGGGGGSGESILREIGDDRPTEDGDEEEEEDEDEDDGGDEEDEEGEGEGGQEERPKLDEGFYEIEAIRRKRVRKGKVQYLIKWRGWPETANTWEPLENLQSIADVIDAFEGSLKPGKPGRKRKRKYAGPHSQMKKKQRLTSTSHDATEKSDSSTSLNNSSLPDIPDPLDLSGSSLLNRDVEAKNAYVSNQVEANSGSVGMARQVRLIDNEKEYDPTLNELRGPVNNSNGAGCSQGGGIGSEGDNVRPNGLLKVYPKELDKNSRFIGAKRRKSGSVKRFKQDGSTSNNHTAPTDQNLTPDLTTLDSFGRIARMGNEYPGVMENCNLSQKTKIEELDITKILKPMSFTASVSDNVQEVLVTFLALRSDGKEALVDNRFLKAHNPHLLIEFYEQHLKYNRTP

[4] = molecular target: T2, LIKE HETEROCHROMATIN PROTEIN1 (LHP1), full length, fused to the GAL4 DNA binding domain (Arabidopsis thaliana); assay: two-hybrid; yeast two-hybrid assays with LIF2 pentapeptide mutant or deletion and LHP1; data not shown
[5] = molecular target: T3, LIF2 protein fused to GST (Arabidopsis thaliana) (UniProt Q9ASP6); assay: pull-down; E. coli extracts with GST- and His6-tagged proteins mixed in a 1:2 ratio with glutathione Sepharose 4B beads, room temperature 1 h, BB binding buffer, 5 washes; His6-tagged protein detected by anti-His6-peroxidase blot; in duplicate
T3 sequence: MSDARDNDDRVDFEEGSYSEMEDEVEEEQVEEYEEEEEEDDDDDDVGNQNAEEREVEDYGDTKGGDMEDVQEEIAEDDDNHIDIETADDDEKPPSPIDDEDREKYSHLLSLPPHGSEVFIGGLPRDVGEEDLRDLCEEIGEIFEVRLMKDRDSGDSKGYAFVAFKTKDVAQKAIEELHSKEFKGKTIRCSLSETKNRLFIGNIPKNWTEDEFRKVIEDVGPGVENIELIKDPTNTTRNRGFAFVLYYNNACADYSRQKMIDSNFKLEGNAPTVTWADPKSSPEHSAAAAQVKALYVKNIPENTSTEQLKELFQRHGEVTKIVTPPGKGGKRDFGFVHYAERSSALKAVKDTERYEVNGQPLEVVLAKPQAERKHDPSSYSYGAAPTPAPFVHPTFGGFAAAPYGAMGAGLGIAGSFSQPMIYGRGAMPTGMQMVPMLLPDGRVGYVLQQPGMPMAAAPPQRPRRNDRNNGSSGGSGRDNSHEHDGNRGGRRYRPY

[6] = molecular target: LHP1 protein fused to a His6 tag (Arabidopsis thaliana) (UniProt Q946J8); assay: as above

B1: LIF2 fused to a split YFP fragment for BiFC (protein, UniProt Q9ASP6 1-495)
chain: MSDARDNDDRVDFEEGSYSEMEDEVEEEQVEEYEEEEEEDDDDDDVGNQNAEEREVEDYGDTKGGDMEDVQEEIAEDDDNHIDIETADDDEKPPSPIDDEDREKYSHLLSLPPHGSEVFIGGLPRDVGEEDLRDLCEEIGEIFEVRLMKDRDSGDSKGYAFVAFKTKDVAQKAIEELHSKEFKGKTIRCSLSETKNRLFIGNIPKNWTEDEFRKVIEDVGPGVENIELIKDPTNTTRNRGFAFVLYYNNACADYSRQKMIDSNFKLEGNAPTVTWADPKSSPEHSAAAAQVKALYVKNIPENTSTEQLKELFQRHGEVTKIVTPPGKGGKRDFGFVHYAERSSALKAVKDTERYEVNGQPLEVVLAKPQAERKHDPSSYSYGAAPTPAPFVHPTFGGFAAAPYGAMGAGLGIAGSFSQPMIYGRGAMPTGMQMVPMLLPDGRVGYVLQQPGMPMAAAPPQRPRRNDRNNGSSGGSGRDNSHEHDGNRGGRRYRPY
binding [1]: binds
binding [2]: binds

B2: LHP1-Interacting Factor2 (LIF2), partial cDNA clone aa 204-495 isolated in the two-hybrid screen (domain or fragment, UniProt Q9ASP6 204-495)
chain: PKNWTEDEFRKVIEDVGPGVENIELIKDPTNTTRNRGFAFVLYYNNACADYSRQKMIDSNFKLEGNAPTVTWADPKSSPEHSAAAAQVKALYVKNIPENTSTEQLKELFQRHGEVTKIVTPPGKGGKRDFGFVHYAERSSALKAVKDTERYEVNGQPLEVVLAKPQAERKHDPSSYSYGAAPTPAPFVHPTFGGFAAAPYGAMGAGLGIAGSFSQPMIYGRGAMPTGMQMVPMLLPDGRVGYVLQQPGMPMAAAPPQRPRRNDRNNGSSGGSGRDNSHEHDGNRGGRRYRPY
binding [3]: binds

B3: LIF2 with the putative pentapeptide 361LEVVL365 deleted (protein, UniProt Q9ASP6)
chain: MSDARDNDDRVDFEEGSYSEMEDEVEEEQVEEYEEEEEEDDDDDDVGNQNAEEREVEDYGDTKGGDMEDVQEEIAEDDDNHIDIETADDDEKPPSPIDDEDREKYSHLLSLPPHGSEVFIGGLPRDVGEEDLRDLCEEIGEIFEVRLMKDRDSGDSKGYAFVAFKTKDVAQKAIEELHSKEFKGKTIRCSLSETKNRLFIGNIPKNWTEDEFRKVIEDVGPGVENIELIKDPTNTTRNRGFAFVLYYNNACADYSRQKMIDSNFKLEGNAPTVTWADPKSSPEHSAAAAQVKALYVKNIPENTSTEQLKELFQRHGEVTKIVTPPGKGGKRDFGFVHYAERSSALKAVKDTERYEVNGQPAKPQAERKHDPSSYSYGAAPTPAPFVHPTFGGFAAAPYGAMGAGLGIAGSFSQPMIYGRGAMPTGMQMVPMLLPDGRVGYVLQQPGMPMAAAPPQRPRRNDRNNGSSGGSGRDNSHEHDGNRGGRRYRPY
binding [4]: binds

B4: LHP1 protein fused to a His6 tag (protein, UniProt Q946J8 1-445)
chain: MKGASGAVKKKPQVLNEAGEAETAVETVGESRKISGDGGFGSDDGGGGGGGGSGESILREIGDDRPTEDGDEEEEEDEDEDDGGDEEDEEGEGEGGQEERPKLDEGFYEIEAIRRKRVRKGKVQYLIKWRGWPETANTWEPLENLQSIADVIDAFEGSLKPGKPGRKRKRKYAGPHSQMKKKQRLTSTSHDATEKSDSSTSLNNSSLPDIPDPLDLSGSSLLNRDVEAKNAYVSNQVEANSGSVGMARQVRLIDNEKEYDPTLNELRGPVNNSNGAGCSQGGGIGSEGDNVRPNGLLKVYPKELDKNSRFIGAKRRKSGSVKRFKQDGSTSNNHTAPTDQNLTPDLTTLDSFGRIARMGNEYPGVMENCNLSQKTKIEELDITKILKPMSFTASVSDNVQEVLVTFLALRSDGKEALVDNRFLKAHNPHLLIEFYEQHLKYNRTP
binding [5]: binds
binding [6]: binds

B5: LHP1 fused to a split YFP fragment for BiFC (protein, UniProt Q946J8 1-445)
chain: MKGASGAVKKKPQVLNEAGEAETAVETVGESRKISGDGGFGSDDGGGGGGGGSGESILREIGDDRPTEDGDEEEEEDEDEDDGGDEEDEEGEGEGGQEERPKLDEGFYEIEAIRRKRVRKGKVQYLIKWRGWPETANTWEPLENLQSIADVIDAFEGSLKPGKPGRKRKRKYAGPHSQMKKKQRLTSTSHDATEKSDSSTSLNNSSLPDIPDPLDLSGSSLLNRDVEAKNAYVSNQVEANSGSVGMARQVRLIDNEKEYDPTLNELRGPVNNSNGAGCSQGGGIGSEGDNVRPNGLLKVYPKELDKNSRFIGAKRRKSGSVKRFKQDGSTSNNHTAPTDQNLTPDLTTLDSFGRIARMGNEYPGVMENCNLSQKTKIEELDITKILKPMSFTASVSDNVQEVLVTFLALRSDGKEALVDNRFLKAHNPHLLIEFYEQHLKYNRTP
binding [2]: binds
